A short description of the test: qHTS Assay to Find Inhibitors of Chronic Active B-Cell Receptor Signaling. As to conditions: ABC-DLBCL IkBa-CBG/CBR reporter, luminescence ratio (green luciferase fused to IkBa over red control in TMD8 lymphoma cells), 4 h. The essentials:
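Concentration-response series (up to 46 uM) were applied to TMD8 dual-reporter cells for 4 h at 37C with doxycycline. Green/red ratio, after filter-overlap correction, defined %Activity; red signal alone was normalised to basal cells and zero luminescence.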

Setting [1] is: measured here: CBR red luminescence, cell number.
The mark [2] stands for this setting: measured here: IkBa-CBG green luminescence.

Some of the results follow. The main result of the screen is listed elsewhere. These columns were measured beside it and carry no call. Compounds called inactive in the main read-out are mostly missing here. Potencies come from curve fits of mixed quality, noted in brackets.

Regarding `Cc1[nH]n(-c2ccccc2)c(=O)c1C1(C(F)(F)F)C(=O)N(c2ccccc2)C2=C1C(=O)CC(C)(C)C2` (stereo not given), the AC50 under setting [1] is 29.1 µM [falling, partial curve, poor fit].
Still for that read-out and setting: the figure for `C[C@@H]1CN([C@@H](C)CO)C(=O)c2cc(NC(=O)CCC(F)(F)F)ccc2O[C@H]1CN(C)S(=O)(=O)c1ccc(Cl)cc1` is 16.4 µM [rising, single point]; for `O=CN/N=C/c1c(O)ccc2ccccc12` it is 2.24 µM [falling, full curve]; for `S=C(c1ccc(N2CCOCC2)cc1)N1CCOCC1` it is 6.51 µM [falling, partial curve, poor fit].
In the case of `CCOc1ccc(-n2cc(-c3ccccc3)c3c(N4CCC(C)CC4)ncnc32)cc1`, under setting [1], the AC50 is 20 µM [rising, partial curve, poor fit].
Turning to `Cc1ccc(C2CC(c3cccc(Br)c3)Nc3nnnn32)cc1` (stereo not given), the AC50 was 29.1 µM [falling, single point] under setting [1] and 20.6 µM [rising, partial curve, poor fit] under setting [2].
In the case of `O=c1oc2ccc(Cl)cc2nc1/C=C(\O)c1ccco1`, the AC50 under setting [1] was 3.98 µM [rising, single point].
For `CC(OC(=O)c1ccc2c(c1)OCO2)C(=O)NC1CCCCC1C` (stereo not given), the half-maximal activity concentration (AC50) under setting [1] is 0.82 µM [falling, partial curve, poor fit].
On the same count and under the same terms, for `CCOc1ccc(NC(=O)C(c2ccccn2)N(C(=O)CCl)c2ccc(OC)cc2)cc1` (stereo not given) the value was 0.58 µM [rising, full curve]; for `O=C(CCC1COc2ccccc2O1)NCC1COc2ccccc2O1` (stereo not given), 2.59 µM [rising, partial curve, poor fit].
Same read-out and setting: for `Cc1cccc(N(CC(=O)NCc2ccco2)C(=O)CCC(=O)Nc2ccccn2)c1` the value was 16.4 µM [falling, single point].
Take `COc1ccccc1NC(=O)c1c([N+](=O)[O-])c(C(C)(C)C)nn1C`: under setting [1], the AC50 is 0.112 µM [rising, full curve, poor fit].
Still for that read-out and setting: for `Fc1ccc(-n2nnc(-c3ccnc4ccccc34)n2)cc1` the value was 35.5 µM [falling, single point]; for `CC(C)NC(=O)COC(=O)c1ccc(NS(=O)(=O)c2ccc3c(c2)OCCO3)cc1`, 0.103 µM [falling, full curve, poor fit]; for `O=C(N/N=C/c1ccc2c(c1)OCO2)c1cccc2ccccc12`, 1.58 µM [falling, full curve, poor fit].
Still for that read-out and setting: the figure for `CCOC(=O)c1ccc(NC(=O)CN(c2ccc(C)cc2)S(=O)(=O)c2c(C)n[nH]c2C)cc1` is 20 µM [falling, single point].
`Cc1cc(-n2c(C)cc(C(=O)CSc3nc4ccccc4c(=O)n3Cc3ccco3)c2C)no1`: the AC50 under setting [1] was 6.51 µM [rising, single point].
Regarding `COC(=O)C(CCCCNC(=O)c1ccc([N+](=O)[O-])cc1)NC(=O)c1ccc([N+](=O)[O-])cc1` (stereo not given), the AC50 under setting [1] was 3.26 µM [rising, single point].
With `O=C(Nc1ccc(Cl)c(Cl)c1)c1ccc(Cn2cc(Cl)cn2)cc1`, the half-maximal activity concentration (AC50) reads like this: under setting [1], 20.6 µM [falling, single point]; under setting [2], 20.6 µM [rising, partial curve, poor fit].
`CCC1(C)Cc2c(sc3nc(SC)nc(NCCN(C)C)c23)CO1` (stereo not given): the half-maximal activity concentration (AC50) under setting [1] is 6.51 µM [falling, single point].
The same measure, in the same setting: the figure for `Cn1nccc1C(=O)Nc1ccn(C23CC4CC(CC(C4)C2)C3)n1` is 3.26 µM [rising, partial curve, poor fit]; for `NNC(=O)CSCc1ccc(Cl)cc1Cl` it is 15.8 µM [falling, partial curve, poor fit].
The same measure, in the same setting: the figure for `COc1cc2c(cc1OC)C(COc1ccc(F)cc1)NCC2` (stereo not given) is 11.2 µM [falling, single point].
On to `CCCCCn1c(N)c(-c2nc3ccccc3o2)c2c([N+](=O)[O-])nn(C)c(=O)c21`, for which, under setting [1], the concentration at half-maximal activity (AC50) is 0.206 µM [rising, full curve, poor fit].
Same read-out and setting: for `CC(=O)c1ccccc1NC(=O)C1CC(=O)N(c2ccc3c(c2)OCCO3)C1` (stereo not given) the value was 29.1 µM [rising, single point]; for `c1ccc(-c2noc(-c3ccco3)n2)nc1`, 29.1 µM [falling, single point].
As for `COc1cccc(C2C3=C(N=c4s/c(=C\c5ccccc5O)c(=O)n42)c2ccccc2CC3)c1OC` (stereo not given), the AC50 under setting [1] is 14.1 µM [falling, partial curve, poor fit].
With `Cn1nc(C(=O)NNC(=O)c2cccc(Cl)c2)ccc1=O`, the AC50 under setting [1] is 29.1 µM [falling, single point].
In the case of `C/C(=N\Nc1nc(C)cc(-c2ccccc2)n1)c1ccccc1`, the concentration at half-maximal activity (AC50) under setting [1] was 2.24 µM [falling, full curve, poor fit].
`CCc1nnc(NC(=O)c2ccc(-c3ccc([N+](=O)[O-])cc3Cl)o2)s1`: under setting [1], the AC50 is 2.24 µM [rising, full curve].
Turning to `Cc1ccc(N(C(=O)c2csnn2)C(C(=O)NC2CCCCC2)c2ccccn2)cc1` (stereo not given), the AC50 under setting [1] was 31.6 µM [falling, single point].
Same read-out and setting: for `CN(C)c1cccc(C(=O)NCc2ccc(Cl)cc2)c1` the value was 15.8 µM [rising, single point]; for `CCn1c(C)c(CS(=O)(=O)c2ccccc2)[nH]c1=O`, 35.5 µM [falling, single point]; for `COc1ccccc1-n1c(CNC(=O)c2cccs2)n[nH]c1=S`, 1.12 µM [falling, partial curve, poor fit].
As to `COCCNCc1nc2sc(C)c(-c3ccccc3)c2c(=O)[nH]1`, under setting [1], the AC50 is 1.12 µM [rising, full curve, poor fit].
Still for that read-out and setting: the figure for `COc1ccc(-c2cc(-c3c(O)c(OC)c4occc4c3OC)[nH]n2)cc1OC` is 1 µM [rising, partial curve, poor fit]; for `O=C1NC(Cc2c[nH]c3ccccc23)C(=O)N1CCOc1ccccc1` (stereo not given) it is 4.11 µM [rising, single point].
Still for that read-out and setting: the figure for `COc1cc(OC)cc(-c2cc(N)n(S(=O)(=O)c3cccc4nsnc34)n2)c1` is 8.91 µM [falling, partial curve, poor fit].
As for `COc1ccc(S(=O)(=O)Nc2cc3c(C(C)=O)c(C)oc3c3ccccc23)cc1`, the AC50 under setting [1] is 2.06 µM [rising, full curve, poor fit] and the concentration at half-maximal activity (AC50) under setting [2] was 2.06 µM [falling, partial curve, poor fit].
For the compound `O=C(NCc1ccco1)C1CC(=O)N(c2ccc(Cl)cc2)C1` (stereo not given), under setting [1], the half-maximal activity concentration (AC50) is 6.31 µM [rising, single point].
Turning to `CC(C)=CCc1c(O)c(CC=C(C)C)c2occ(-c3ccc(O)cc3)c(=O)c2c1O`, the AC50 under setting [1] is 5.62 µM [rising, single point].
As to `COc1ccc(NC(=O)C2C3CCC(C3)C2C(=O)O)cc1OC` (stereo not given), the AC50 under setting [1] was 11.6 µM [rising, partial curve, poor fit].
With `O=C(Cc1ccc(Br)cc1)NCc1ccccc1`, the concentration at half-maximal activity (AC50) under setting [1] is 17.8 µM [rising, partial curve, poor fit] and the concentration at half-maximal activity (AC50) under setting [2] was 17.8 µM [falling, single point].
As to `COc1cccc(/C=N/NC(=O)CSc2cccc3cccnc23)c1`, the AC50 is, setting by setting: under setting [1], 35.5 µM [falling, single point]; under setting [2], 25.1 µM [falling, single point].
On to `Cc1cccc(CN2CCN(C(=O)CCl)CC2)c1`, for which the half-maximal activity concentration (AC50) under setting [1] is 8.2 µM [falling, partial curve].
The same measure, in the same setting: for `Cc1ncsc1CCOC(=O)c1ccc(N2CCOCC2)c([N+](=O)[O-])c1` the value was 2.82 µM [rising, full curve]; for `COc1ccc(CCNC(=O)c2c(O)c3ccccc3[nH]c2=O)cc1OC`, 12.6 µM [falling, partial curve, poor fit]; for `O=C(C1CCC(CNc2c(N3CCCCC3)c(=O)c2=O)CC1)N1CCN(C2CCCCC2)CC1` (stereo not given), 22.4 µM [falling, partial curve, poor fit].
Same read-out and setting: for `Cc1cccc(-c2cc3nc(C)cc(NCCCn4ccnc4)n3n2)c1` the value was 5.8 µM [falling, full curve, poor fit]; for `COC(=O)c1cn(C(=O)c2cccc(Br)c2)c2ccccc12`, 35.5 µM [rising, single point].
Consider `CCOC(=O)c1c(C)nc(C)c(C(=O)OCC)c1-c1ccc(Br)cc1`, for which, under setting [1], the AC50 is 11.6 µM [rising, partial curve, poor fit].
The same measure, in the same setting: the figure for `COc1ccc(-c2c(C)oc3ccc(C)cc23)cc1` is 11.2 µM [rising, partial curve, poor fit].
As for `Nc1nc(CN2CCc3ccccc3C2)nc(Nc2ccccc2)n1`, under setting [2], the concentration at half-maximal activity (AC50) was 23.1 µM [falling, single point].
Turning to `O=C(CN1CCN(Cc2ccc3c(c2)OCO3)CC1)N1CCc2[nH]c3ccc(F)cc3c2C1`, the AC50 under setting [1] is 11.6 µM [falling, partial curve, poor fit].
Still for that read-out and setting: for `N#CCCNC(=O)Cn1c(COc2ccc(Cl)cc2)nc2ccccc21` the value was 20.6 µM [falling, single point]; for `Cc1cc(Br)ccc1NC(=O)CN(C)C(=O)CNC(=O)Cc1ccccc1`, 0.411 µM [falling, full curve, poor fit]; for `Cc1ccc(NC(=O)COC(=O)CN2CCCCCC2=O)c(C)c1`, 6.51 µM [rising, single point].
On to `C=CS(=O)(=O)N(Cc1ccc(Cl)c(Cl)c1)C[C@@H](O)CO`, for which, under setting [1], the AC50 is 3.26 µM [falling, partial curve, poor fit].
Same read-out and setting: for `CS(=O)(=O)N(CC(=O)Nc1ccc(CC#N)cc1)c1ccc(C23CC4CC(CC(C4)C2)C3)cc1` the value was 7.31 µM [falling, partial curve].
In the case of `COC(=O)c1sc2nc(N3CCCCC3)c3c(c2c1N)CCCC3`, the AC50 under setting [1] was 2.06 µM [rising, partial curve, poor fit].
